PubChem BioAssay AID652272 – Drosophila RNAi Screening Center – 2013
Assay: 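Genes whose knock-down decreases or increases Hedgehog reporter output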 (primary screen). Cells: Drosophila clone 8 (Cl8) cells. Knock-down reagent: long dsRNA against Drosophila genes. Detection: 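Plate reader light from a firefly reporter under a ptc promoter fragment that responds to Hedgehog, with Renilla light as transfection reference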. Scale: firefly Hh reporter signal: higher = more ptc reporter light; Renilla reference signal: higher = more Renilla control light. Hit rule: 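Hit when the z-score averaged over two replicates is under -2 or over +3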. Meaning of the calls: active = hit: reporter lowered or raised; inactive = not a hit.
In all, the deposit lists about 21,000 reagents; below is a random part of those that have a named target and a result. Of all reagents, 503 (2.4%) were called active. 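Raw plate light values, not normalised; calls rest on replicate z-scores that were not deposited; hits include reporter decreases as well as increases.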 A plus sign joins genes that one reagent is predicted to hit. No sequences are given here. Not given: the amount of reagent, the time to read-out.

no.	gene	DRSC id	firefly Hh reporter signal, replicate 1	firefly Hh reporter signal, replicate 2	firefly Hh reporter signal, replicate 3	Renilla reference signal, replicate 1	Renilla reference signal, replicate 2	Outcome
1	mars	DRSC06656	1.39e5	5.21e5	68951	5048	26379	inactive
2	Tspo + rempA	DRSC00533	90473	1.18e5		3544	4776	inactive
3	CG17145	DRSC10247	1.07e5	1.20e5		2979	3301	inactive
4	GatC + PolG2	DRSC03312	65900	64305		2810	2834	inactive
5	Vps25	DRSC06486	94754	32199		2676	3063	inactive
6	CG3337	DRSC15478	4.23e5	93357		4417	4417	inactive
7	hfp	DRSC08731	59877	29573		2400	2988	inactive
8	hfp	DRSC08732	92011	36420		2564	2995	inactive
9	CG9360	DRSC20180	51766	2.79e5		1600	10973	inactive
10	Rbm13	DRSC17749	63190	2.00e5		1834	12139	inactive
11	CG3513	DRSC00608	1.46e5	63762		4019	6441	inactive
12	Fst	DRSC16491	1.40e5	95709		6416	4168	inactive
13	Fbxo42	DRSC04529	63942	71612		2881	3191	inactive
14	CG17271	DRSC15210	5.35e5	89345		30976	6864	inactive
15	CG34107	DRSC14554	1.29e5	2.09e5		3648	5680	inactive
16	CG10914	DRSC06010	92445	54216		2700	4338	inactive
17	Fmo-1	DRSC04328	1.59e5	95824		6032	4141	inactive
18	CG13473	DRSC10017	84800	81515		3760	3168	inactive
19	Vha16-3	DRSC10872	34289	51954	51251	3884	3251	inactive
20	Cyt-b5-r	DRSC03308	1.27e5	84240		3323	6807	inactive
21	bur	DRSC03163	94547	77286		3478	2905	inactive
22	CG16758	DRSC07984	86481	1.30e5		2180	5301	inactive
23	CG16758	DRSC08492	1.11e5	95756		5746	4091	inactive
24	Ag5r2	DRSC19328	84874	1.54e5		2604	6707	inactive
25	CG17193	DRSC15187	6.22e5	93760		30597	2821	inactive
26	CG13609	DRSC14612	7.46e5	1.63e5		41575	5020	inactive
27	Xrp1	DRSC15282	2.46e5	42160		15248	1824	inactive
28	Xrp1	DRSC15283	5.31e5	1.34e5		22689	3491	inactive
29	tbrd-1	DRSC14601	3.80e5	77611		19218	2726	inactive
30	Myt1	DRSC11228	60768	21061		6034	2308	inactive
31	CG3216	DRSC04347	65165	39116		2035	4492	inactive
32	CG43795	DRSC04192	1.01e5	45712		2823	4521	inactive
33	CG43795	DRSC04193	1.14e5	67996		3117	5792	inactive
34	CG43795	DRSC04194	1.41e5	1.07e5		4139	8097	inactive
35	CG43795	DRSC04309	1.00e5	74601		2778	6464	inactive
36	CG43795	DRSC04310	77593	56508		2036	4428	inactive
37	CG43795	DRSC04497	64172	33088		1863	3922	inactive
38	CG9297	DRSC16469	1.11e5	1.32e5		5629	5145	inactive
39	CG14050	DRSC18594	76816	2.44e5		2758	8640	inactive
40	RhoGAP15B	DRSC19924	80881	84797		1991	2311	inactive
41	RhoGAP15B	DRSC19925	80243	1.81e5		2167	8160	inactive
42	CG11836	DRSC14396	1.08e5	67613		3843	2365	inactive
43	CG9839	DRSC16574	1.46e5	80886		5613	3572	inactive
44	CG2127	DRSC06821	97351	55420		2505	5121	inactive
45	dsb	DRSC08407	44480	12949		2064	1360	inactive
46	dsb	DRSC08542	74477	36902		2224	3008	inactive
47	CG12507	DRSC19463	69589	1.96e5		2582	7719	inactive
48	CG3862	DRSC00631	1.42e5	1.40e5		5364	6059	inactive
49	CG10527	DRSC04078	92118	56832		3968	2521	inactive
50	etaTry	DRSC07613	77893	36796		1917	2979	inactive
51	lcs	DRSC20580	92029	3.53e5		2196	13364	inactive
52	Irbp18	DRSC10612	44984	64328	56720	5480	3995	inactive
53	Swip-1	DRSC02083	1.45e5	1.42e5		5366	5424	inactive
54	Swip-1	DRSC02084	1.23e5	44658		3169	4641	inactive
55	CG32269 + CG32270	DRSC08195	1.04e5	53928		3457	3539	inactive
56	LamC	DRSC07453	1.08e5	70978		4453	2604	inactive
57	ckn	DRSC06149	1.03e5	53961		4226	1650	inactive
58	CG4259	DRSC00645	75318	73937		2080	1688	inactive
59	CG33191 + Pif1B	DRSC12706	1.48e5			3218		inactive
60	lncRNA:CR43485	DRSC08059	1.15e5	1.91e5		3722	8080	inactive
61	PIG-Wb	DRSC08526	52407	38200		1789	2886	inactive
62	wbl	DRSC07718	66848	46740		1364	3616	inactive
63	Orcokinin	DRSC04202	1.14e5	65200		3091	6154	inactive
64	CG30076	DRSC05494	1.01e5	2.47e5		2701	11072	inactive
65	Myc	DRSC18762	41920	80410		882	2884	inactive
66	ab	DRSC01162	68688	3.01e5		4371	19127	active
67	ab	DRSC03478	65164	23605		1762	1890	inactive
68	CG7091	DRSC12944	2508	1.49e5		648	2500	inactive
69	CG7091	DRSC16197	92634	96869		1384	2429	inactive
70	CG18649	DRSC10334	1.06e5			6121	2496	inactive
71	CG7737	DRSC07033	84434	75321		3245	2588	inactive
72	CG17234	DRSC00490	1.04e5	78986		2667	1750	inactive
73	l(3)07882	DRSC15882	1.20e5	1.13e5		5706	4726	inactive

Targets listed so far whose target name starts with S or s:
gene	DRSC id	firefly Hh reporter signal, replicate 1	firefly Hh reporter signal, replicate 2	firefly Hh reporter signal, replicate 3	Renilla reference signal, replicate 1	Renilla reference signal, replicate 2	Outcome
Swip-1	DRSC02083	1.45e5	1.42e5		5366	5424	inactive
Swip-1	DRSC02084	1.23e5	44658		3169	4641	inactive
